This test concerns the target Marchantia polymorpha MpSLY1 (yeast bait fusion) (Marchantia polymorpha). Description: two-hybrid; SLY1/GID2 baits (pGBKT7) and DELLA preys (pGADT7); spotted on SD/-LWAH/X, strain AH109, 3-5 d at 30 °C; strengths quantified as β-galactosidase units with CPRG in liquid culture, strain Y187 (ND if OD578 <0.01 after 3 h).

No constants are given. Whether binding was seen depends on the method and setting. A result given as binding can be weak or reduced; the word gives no strength. Where a sequence is shown, tags or fusion partners need not be part of it.

B1: Oryza sativa SLR1 (yeast prey fusion) (protein, UniProt Q7G7J6 1-625)
chain: MKREYQEAGGSSGGGSSADMGSCKDKVMAGAAGEEEDVDELLAALGYKVRSSDMADVAQKLEQLEMAMGMGGVSAPGAADDGFVSHLATDTVHYNPSDLSSWVESMLSELNAPLPPIPPAPPAARHASTSSTVTGGGGSGFFELPAAADSSSSTYALRPISLPVVATADPSAADSARDTKRMRTGGGSTSSSSSSSSSLGGGASRGSVVEAAPPATQGAAAANAPAVPVVVVDTQEAGIRLVHALLACAEAVQQENFAAAEALVKQIPTLAASQGGAMRKVAAYFGEALARRVYRFRPADSTLLDAAFADLLHAHFYESCPYLKFAHFTANQAILEAFAGCHRVHVVDFGIKQGMQWPALLQALALRPGGPPSFRLTGVGPPQPDETDALQQVGWKLAQFAHTIRVDFQYRGLVAATLADLEPFMLQPEGEADANEEPEVIAVNSVFELHRLLAQPGALEKVLGTVHAVRPRIVTVVEQEANHNSGSFLDRFTESLHYYSTMFDSLEGGSSGQAELSPPAAGGGGGTDQVMSEVYLGRQICNVVACEGAERTERHETLGQWRNRLGRAGFEPVHLGSNAYKQASTLLALFAGGDGYRVEEKEGCLTLGWHTRPLIATSAWRVAAA
On to B1, for which the binding entry is reported as “binds”.
